Patent publication US20120207770A1 (NANYANG TECHNOLOGICAL UNIVERSITY, published 2012)
Results are given in words; binding and its absence hold for the method and conditions named. For some of these results: Binding seen in cells or lysates may run through a third protein. Some entries that bind do so weakly or less than the wild type.

The chains behind the UniProt entries cited, without tags or fusion partners. Residues count along the entry.
UniProt P05556: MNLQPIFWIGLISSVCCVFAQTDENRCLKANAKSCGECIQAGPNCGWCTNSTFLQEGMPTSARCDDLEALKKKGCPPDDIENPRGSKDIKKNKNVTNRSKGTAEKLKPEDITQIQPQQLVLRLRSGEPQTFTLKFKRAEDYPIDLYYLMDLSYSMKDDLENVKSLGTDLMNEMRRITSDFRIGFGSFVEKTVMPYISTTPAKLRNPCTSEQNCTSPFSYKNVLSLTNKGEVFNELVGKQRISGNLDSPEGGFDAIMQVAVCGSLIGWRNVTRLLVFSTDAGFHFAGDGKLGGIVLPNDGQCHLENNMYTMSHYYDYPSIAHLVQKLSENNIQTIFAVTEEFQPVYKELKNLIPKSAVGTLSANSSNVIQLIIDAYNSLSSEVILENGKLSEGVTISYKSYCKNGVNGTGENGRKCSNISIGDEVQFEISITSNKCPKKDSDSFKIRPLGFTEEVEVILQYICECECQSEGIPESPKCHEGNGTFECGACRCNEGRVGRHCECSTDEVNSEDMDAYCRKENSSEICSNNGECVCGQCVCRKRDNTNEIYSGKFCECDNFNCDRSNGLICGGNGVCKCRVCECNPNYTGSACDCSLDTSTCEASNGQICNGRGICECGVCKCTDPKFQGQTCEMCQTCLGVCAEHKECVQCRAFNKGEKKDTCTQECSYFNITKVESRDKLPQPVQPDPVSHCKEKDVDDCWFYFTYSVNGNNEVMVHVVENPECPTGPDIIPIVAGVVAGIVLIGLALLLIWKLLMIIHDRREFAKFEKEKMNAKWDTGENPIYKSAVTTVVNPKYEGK
UniProt P18084, residues 24-799: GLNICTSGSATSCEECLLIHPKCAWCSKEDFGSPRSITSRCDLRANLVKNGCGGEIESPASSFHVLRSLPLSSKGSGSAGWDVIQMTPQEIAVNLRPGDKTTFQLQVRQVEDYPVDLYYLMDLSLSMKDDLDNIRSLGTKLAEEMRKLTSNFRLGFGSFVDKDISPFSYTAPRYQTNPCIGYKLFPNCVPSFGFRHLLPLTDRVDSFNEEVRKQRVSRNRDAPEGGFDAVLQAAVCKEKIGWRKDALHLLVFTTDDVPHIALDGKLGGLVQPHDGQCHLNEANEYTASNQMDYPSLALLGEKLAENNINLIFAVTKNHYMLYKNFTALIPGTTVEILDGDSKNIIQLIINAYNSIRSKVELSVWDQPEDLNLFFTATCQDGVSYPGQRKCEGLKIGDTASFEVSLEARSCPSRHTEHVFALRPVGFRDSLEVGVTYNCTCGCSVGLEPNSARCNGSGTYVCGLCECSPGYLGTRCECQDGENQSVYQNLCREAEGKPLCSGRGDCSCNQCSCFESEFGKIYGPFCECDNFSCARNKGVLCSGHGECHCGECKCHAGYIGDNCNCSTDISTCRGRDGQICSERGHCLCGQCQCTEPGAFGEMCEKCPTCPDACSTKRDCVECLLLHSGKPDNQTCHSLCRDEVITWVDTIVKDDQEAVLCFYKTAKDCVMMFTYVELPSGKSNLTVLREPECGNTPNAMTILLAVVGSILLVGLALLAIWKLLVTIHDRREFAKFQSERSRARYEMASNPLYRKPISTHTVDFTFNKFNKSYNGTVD

Tests used:
[1] = target: integrin β1, endogenous, on A-5RT3 tumor cells and A-5RT3-induced tumors (human) (UniProt P05556); assay: summary of the filing's results
[2] = target: integrin β5, endogenous, on A-5RT3 tumor cells and A-5RT3-induced tumors (human) (UniProt P18084); assay: summary of the filing's results
[3] = target: integrin β1, endogenous, on A-5RT3 tumor cells and A-5RT3-induced tumors (human) (UniProt P05556); assay: in situ proximity ligation assay
[4] = target: integrin β5, endogenous, on A-5RT3 tumor cells and A-5RT3-induced tumors (human) (UniProt P18084); assay: in situ proximity ligation assay
[5] = target: integrin β1, endogenous, on A-5RT3 tumor cells and A-5RT3-induced tumors (human) (UniProt P05556); assay: in situ proximity ligation assay on tumors
[6] = target: integrin β1, endogenous, on A-5RT3 tumor cells and A-5RT3-induced tumors (human) (UniProt P05556); assay: in situ proximity ligation assay on A-5RT3 cells
[7] = target: integrin β5, endogenous, on A-5RT3 tumor cells and A-5RT3-induced tumors (human) (UniProt P18084); assay: in situ proximity ligation assay on A-5RT3 cells
[8] = target: integrin β1, endogenous, on A-5RT3 tumor cells and A-5RT3-induced tumors (human) (UniProt P05556); assay: in situ proximity ligation assay on tumor biopsies
[9] = target: integrin β5, endogenous, on A-5RT3 tumor cells and A-5RT3-induced tumors (human) (UniProt P18084); assay: in situ proximity ligation assay on tumor biopsies
[10] = target: integrin β1, endogenous, on A-5RT3 tumor cells and A-5RT3-induced tumors (human) (UniProt P05556); assay: co-immunoprecipitation from tumor lysates, immunoblot
[11] = target: integrin β5, endogenous, on A-5RT3 tumor cells and A-5RT3-induced tumors (human) (UniProt P18084); assay: as above
[12] = target: integrin β1, endogenous, on A-5RT3 tumor cells and A-5RT3-induced tumors (human) (UniProt P05556); assay: in situ proximity ligation assay on A-5RT3 cells and induced tumors
[13] = target: integrin β5, endogenous, on A-5RT3 tumor cells and A-5RT3-induced tumors (human) (UniProt P18084); assay: as above

Measured: binding

B1: tumor-derived (endogenous) ANGPTL4, detected as cANGPTL4, of A-5RT3 and other human tumor cells (ligand, UniProt Q9BY76 164-406, looked up)
chain: RLPEMAQPVDPAHNVSRLHRLPRDCQELFQVGERQSGLFEIQPQGSPPFLVNCKMTSDGGWTVIQRRHDGSVDFNRPWEAYKAGFGDPHGEFWLGLEKVHSITGDRNSRLAVQLRDWDGNAELLQFSVHLGGEDTAYSLQLTAPVAGQLGATTVPPSGLSVPFSTWDQDHDLRRDKNCAKSLSGGWWFGTCSHSNLNGQYFRSIPQQRQKLKKGIFWKTWRGRYYPLQATTMLIQPMAAEAAS
binds: all assays above
